According to patent publication US20230134083A1:
Results are given in words; binding and its absence hold for the method and conditions named. Some entries that bind do so weakly or less than the wild type. For some assays here: Where a sequence is shown, tags or fusion partners need not be part of it.

Sequences of proteins named here, by UniProt entry; tags and fusion partners are left off. Residues count along the entry.
UniProt P27037, residues 21-135: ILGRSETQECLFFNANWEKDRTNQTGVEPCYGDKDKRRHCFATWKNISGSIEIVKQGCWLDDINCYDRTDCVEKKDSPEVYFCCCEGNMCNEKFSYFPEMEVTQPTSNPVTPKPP

What was measured:
[1] = target: T1, GDF11 (UniProt O95390); experiment: Biacore (SPR) ligand binding data, FIG. 6
T1 sequence (looked up): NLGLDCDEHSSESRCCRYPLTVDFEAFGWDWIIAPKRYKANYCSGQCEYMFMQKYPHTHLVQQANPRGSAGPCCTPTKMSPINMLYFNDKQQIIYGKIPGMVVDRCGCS

[2] = target: T2, activin B (UniProt P09529); experiment: Biacore (SPR) ligand binding data, FIG. 6
T2 sequence (looked up): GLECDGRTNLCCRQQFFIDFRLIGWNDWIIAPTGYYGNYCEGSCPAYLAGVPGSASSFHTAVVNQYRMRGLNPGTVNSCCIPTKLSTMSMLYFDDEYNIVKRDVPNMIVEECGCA

[3] = target: T3, BMP10 (UniProt O95393); experiment: Biacore (SPR); receptor Fc fusion captured by anti-Fc antibody, ligand injected
T3 sequence (looked up): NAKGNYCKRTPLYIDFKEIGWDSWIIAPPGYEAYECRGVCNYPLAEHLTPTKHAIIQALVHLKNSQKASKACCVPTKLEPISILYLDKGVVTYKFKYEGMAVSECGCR

[4] = target: T1, GDF11; experiment: as above
[5] = target: T4, GDF8 (UniProt O14793); experiment: as above
T4 sequence (looked up): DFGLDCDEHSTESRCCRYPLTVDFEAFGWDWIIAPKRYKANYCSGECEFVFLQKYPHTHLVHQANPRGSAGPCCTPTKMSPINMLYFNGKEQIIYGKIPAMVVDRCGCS

[6] = target: T2, activin B; experiment: as above
[7] = target: T3, BMP10; experiment: Biacore (SPR) ligand binding data, FIG. 5
[8] = target: T1, GDF11; experiment: Biacore (SPR) ligand binding data, FIG. 5
[9] = target: T4, GDF8; experiment: Biacore (SPR) ligand binding data, FIG. 5
[10] = target: T2, activin B; experiment: Biacore (SPR) ligand binding data, FIG. 5
[11] = target: T3, BMP10; experiment: Biacore (SPR); receptor Fc fusion captured by anti-Fc antibody, ligand injected; remark: listed apart in the source
[12] = target: T1, GDF11; experiment: as above; remark: listed apart in the source
[13] = target: T4, GDF8; experiment: as above; remark: listed apart in the source
[14] = target: T2, activin B; experiment: as above; remark: listed apart in the source

Measured: binding

ActRIIA homodimer Fc fusion (from UniProt P27037 21-135)
binds: [1] | [2] | [3] | [4] | [5] | [6]

B1: ActRIIB homodimer Fc fusion (Fc fusion, UniProt Q13705 20-134, looked up, not shown: a dimerising Fc or GST)
chain: GRGEAETRECIYYNANWELERTNQSGLERCEGEQDKRLHCYASWRNSSGTIELVKKGCWLDDFNCYDRQECVATEENPQVYFCCCEGNFCNERFTHLPEAGGPEVTYEPPPTAPT
binds: [7] | [8] | [9] | [10] | [11] | [12] | [13] | [14]
